Assays:
[1] = test system: Aedes aegypti mosquitoes, pyrethroid-resistant Puerto Rico strain; assay: Vapor repellency glass tube assay (1 h), resistant strain; assay type: in vivo; conditions: value in brackets after the second EC50
[2] = test system: Aedes aegypti mosquitoes, pyrethroid-resistant Puerto Rico strain; assay: Vapor toxicity (24 h lethality under constant exposure in glass tubes), resistant strain; conditions: value in brackets after the second LC50

Row | Compound | Resistance ratio (RR) of 1 h Repellency EC50 [1] | Resistance ratio (RR)=24 h LC50 PR/24 h LC50 OR [2]
1 | CCN(CC)C(=O)c1cccc(C)c1 [DEET, N,N-diethyl-m-toluamide, reference compound] | (2.3) | –
2 | CC1(C)[C@H](C=C(Cl)Cl)[C@H]1C(=O)OCc1c(F)c(F)cc(F)c1F [Transfluthrin, transfluthrin] | (4.6) | (48)
3 | C/C=C/C1C(C(=O)OCc2c(F)c(F)c(COC)c(F)c2F)C1(C)C (centres unmarked) [Metofluthrin, metofluthrin] | (40) | (51)
